36 targets from the supplement of paper PMC10849652 can be followed below.

Protein sequences, listed by entry. Tags and fused reporters are not part of them. Lines headed by an entry give the natural chain unless they say otherwise; changes in a name come on top.
UniProt P26639: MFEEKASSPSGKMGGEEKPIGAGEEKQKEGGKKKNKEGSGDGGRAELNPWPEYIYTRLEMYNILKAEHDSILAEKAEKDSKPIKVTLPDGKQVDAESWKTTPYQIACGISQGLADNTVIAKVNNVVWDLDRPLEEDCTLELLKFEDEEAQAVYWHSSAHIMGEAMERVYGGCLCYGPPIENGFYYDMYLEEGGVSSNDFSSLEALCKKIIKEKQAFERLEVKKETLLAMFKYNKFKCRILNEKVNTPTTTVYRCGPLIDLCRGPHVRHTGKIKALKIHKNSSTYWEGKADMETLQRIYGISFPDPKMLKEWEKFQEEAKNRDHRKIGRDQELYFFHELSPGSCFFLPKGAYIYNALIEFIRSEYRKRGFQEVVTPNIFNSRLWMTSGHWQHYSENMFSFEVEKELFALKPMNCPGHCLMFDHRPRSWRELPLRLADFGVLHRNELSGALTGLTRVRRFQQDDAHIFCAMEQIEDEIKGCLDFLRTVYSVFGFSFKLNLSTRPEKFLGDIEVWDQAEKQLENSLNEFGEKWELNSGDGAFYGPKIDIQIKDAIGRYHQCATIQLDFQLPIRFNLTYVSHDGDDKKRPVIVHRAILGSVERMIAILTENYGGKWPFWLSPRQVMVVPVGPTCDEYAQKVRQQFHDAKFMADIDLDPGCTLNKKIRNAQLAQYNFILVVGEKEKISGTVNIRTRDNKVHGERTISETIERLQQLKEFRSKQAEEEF
UniProt Q17R31: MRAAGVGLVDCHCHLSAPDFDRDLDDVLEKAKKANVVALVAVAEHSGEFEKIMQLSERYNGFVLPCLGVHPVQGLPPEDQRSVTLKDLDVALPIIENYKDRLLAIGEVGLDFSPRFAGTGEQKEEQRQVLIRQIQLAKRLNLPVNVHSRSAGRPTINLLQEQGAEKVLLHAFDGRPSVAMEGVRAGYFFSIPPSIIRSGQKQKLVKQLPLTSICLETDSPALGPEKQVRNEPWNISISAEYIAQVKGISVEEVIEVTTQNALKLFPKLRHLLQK
UniProt Q99426: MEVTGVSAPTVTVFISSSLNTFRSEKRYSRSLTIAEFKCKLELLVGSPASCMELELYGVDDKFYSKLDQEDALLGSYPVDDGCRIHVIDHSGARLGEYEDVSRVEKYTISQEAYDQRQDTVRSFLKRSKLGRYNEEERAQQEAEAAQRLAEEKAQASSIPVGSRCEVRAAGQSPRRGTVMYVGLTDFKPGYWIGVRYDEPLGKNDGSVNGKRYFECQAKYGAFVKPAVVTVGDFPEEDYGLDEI
UniProt Q15633: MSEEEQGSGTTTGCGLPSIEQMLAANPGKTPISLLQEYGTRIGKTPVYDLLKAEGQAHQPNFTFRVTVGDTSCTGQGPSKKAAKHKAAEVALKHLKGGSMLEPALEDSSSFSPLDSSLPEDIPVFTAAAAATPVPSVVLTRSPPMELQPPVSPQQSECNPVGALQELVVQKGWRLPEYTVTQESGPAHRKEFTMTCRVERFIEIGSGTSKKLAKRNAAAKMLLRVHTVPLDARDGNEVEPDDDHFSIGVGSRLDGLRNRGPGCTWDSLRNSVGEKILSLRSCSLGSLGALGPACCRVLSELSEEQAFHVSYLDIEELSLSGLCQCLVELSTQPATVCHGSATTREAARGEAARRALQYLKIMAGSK
UniProt O14776: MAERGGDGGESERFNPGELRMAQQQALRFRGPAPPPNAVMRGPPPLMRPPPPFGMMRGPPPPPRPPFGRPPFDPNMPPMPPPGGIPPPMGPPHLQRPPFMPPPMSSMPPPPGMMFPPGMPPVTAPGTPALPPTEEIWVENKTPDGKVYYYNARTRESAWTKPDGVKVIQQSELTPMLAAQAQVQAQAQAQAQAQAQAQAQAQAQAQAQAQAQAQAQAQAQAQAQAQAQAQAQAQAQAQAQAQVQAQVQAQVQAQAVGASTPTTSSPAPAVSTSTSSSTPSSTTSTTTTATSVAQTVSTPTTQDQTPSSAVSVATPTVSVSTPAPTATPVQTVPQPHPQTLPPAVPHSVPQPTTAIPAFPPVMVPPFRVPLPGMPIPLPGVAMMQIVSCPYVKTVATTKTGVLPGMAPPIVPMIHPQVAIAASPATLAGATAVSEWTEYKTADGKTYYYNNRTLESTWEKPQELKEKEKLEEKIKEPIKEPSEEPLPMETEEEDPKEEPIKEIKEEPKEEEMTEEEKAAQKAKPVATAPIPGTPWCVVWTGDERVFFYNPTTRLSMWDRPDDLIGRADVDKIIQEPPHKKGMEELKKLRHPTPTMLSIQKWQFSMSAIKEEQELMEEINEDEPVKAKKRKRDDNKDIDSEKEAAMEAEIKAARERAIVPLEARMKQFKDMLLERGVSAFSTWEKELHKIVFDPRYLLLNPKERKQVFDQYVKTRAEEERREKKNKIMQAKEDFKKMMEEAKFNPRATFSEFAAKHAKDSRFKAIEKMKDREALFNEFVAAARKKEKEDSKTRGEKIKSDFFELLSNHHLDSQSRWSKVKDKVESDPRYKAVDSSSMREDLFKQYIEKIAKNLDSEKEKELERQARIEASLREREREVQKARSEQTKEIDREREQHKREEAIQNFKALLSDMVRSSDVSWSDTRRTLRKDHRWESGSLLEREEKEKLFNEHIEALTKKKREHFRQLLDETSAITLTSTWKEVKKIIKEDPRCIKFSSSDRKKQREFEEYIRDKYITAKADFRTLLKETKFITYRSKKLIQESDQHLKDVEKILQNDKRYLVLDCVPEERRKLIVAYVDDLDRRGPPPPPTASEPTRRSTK
UniProt Q9NUY8: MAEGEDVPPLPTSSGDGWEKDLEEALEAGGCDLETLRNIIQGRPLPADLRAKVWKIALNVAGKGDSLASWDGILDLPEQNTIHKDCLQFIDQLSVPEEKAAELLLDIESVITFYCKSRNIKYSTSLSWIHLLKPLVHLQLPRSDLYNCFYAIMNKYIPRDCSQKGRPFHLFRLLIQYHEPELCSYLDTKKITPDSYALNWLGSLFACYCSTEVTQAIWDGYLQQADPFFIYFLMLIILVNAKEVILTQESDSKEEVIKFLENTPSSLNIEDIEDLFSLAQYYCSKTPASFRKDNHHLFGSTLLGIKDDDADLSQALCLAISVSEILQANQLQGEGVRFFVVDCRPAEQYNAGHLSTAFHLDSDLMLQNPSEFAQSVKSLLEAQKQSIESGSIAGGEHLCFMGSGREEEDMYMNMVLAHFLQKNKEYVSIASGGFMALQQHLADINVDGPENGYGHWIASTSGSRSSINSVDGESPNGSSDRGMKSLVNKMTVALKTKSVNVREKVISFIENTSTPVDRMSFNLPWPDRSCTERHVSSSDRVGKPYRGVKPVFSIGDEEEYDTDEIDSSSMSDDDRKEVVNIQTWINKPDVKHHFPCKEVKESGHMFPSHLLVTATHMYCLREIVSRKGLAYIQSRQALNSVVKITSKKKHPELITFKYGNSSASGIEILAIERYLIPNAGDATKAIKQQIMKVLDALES
UniProt Q9BYX2: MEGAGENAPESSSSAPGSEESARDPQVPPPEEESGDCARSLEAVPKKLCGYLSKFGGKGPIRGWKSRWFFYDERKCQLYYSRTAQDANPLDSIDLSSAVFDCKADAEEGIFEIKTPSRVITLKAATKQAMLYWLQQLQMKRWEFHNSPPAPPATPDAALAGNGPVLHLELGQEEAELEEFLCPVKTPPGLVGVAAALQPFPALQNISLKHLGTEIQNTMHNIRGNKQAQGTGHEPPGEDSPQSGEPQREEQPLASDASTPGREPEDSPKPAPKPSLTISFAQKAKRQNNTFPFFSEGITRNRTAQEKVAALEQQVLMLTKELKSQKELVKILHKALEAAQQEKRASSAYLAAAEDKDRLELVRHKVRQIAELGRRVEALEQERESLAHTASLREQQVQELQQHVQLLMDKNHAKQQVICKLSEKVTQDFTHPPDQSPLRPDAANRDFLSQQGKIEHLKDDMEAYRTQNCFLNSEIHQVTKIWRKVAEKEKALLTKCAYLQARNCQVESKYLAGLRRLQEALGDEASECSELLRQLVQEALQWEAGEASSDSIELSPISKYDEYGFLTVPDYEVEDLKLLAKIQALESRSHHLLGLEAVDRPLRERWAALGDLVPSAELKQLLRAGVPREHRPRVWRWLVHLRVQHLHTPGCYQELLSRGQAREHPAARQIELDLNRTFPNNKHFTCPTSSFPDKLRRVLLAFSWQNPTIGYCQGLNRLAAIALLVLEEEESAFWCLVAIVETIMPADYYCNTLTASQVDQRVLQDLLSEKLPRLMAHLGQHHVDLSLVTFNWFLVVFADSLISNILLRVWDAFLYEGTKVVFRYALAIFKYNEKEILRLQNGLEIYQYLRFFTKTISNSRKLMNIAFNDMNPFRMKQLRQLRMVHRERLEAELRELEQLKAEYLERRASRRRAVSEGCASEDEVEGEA
UniProt Q15545, whole entry, looked up: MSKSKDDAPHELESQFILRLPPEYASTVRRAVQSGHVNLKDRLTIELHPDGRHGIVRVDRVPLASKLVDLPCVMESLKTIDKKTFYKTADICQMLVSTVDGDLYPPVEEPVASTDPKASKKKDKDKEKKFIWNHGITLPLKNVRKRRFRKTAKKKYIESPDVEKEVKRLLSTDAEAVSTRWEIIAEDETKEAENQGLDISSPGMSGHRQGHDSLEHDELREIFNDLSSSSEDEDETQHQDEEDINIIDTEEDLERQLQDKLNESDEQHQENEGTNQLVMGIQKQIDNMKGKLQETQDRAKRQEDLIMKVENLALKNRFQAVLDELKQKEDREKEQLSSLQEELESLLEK
UniProt Q9C0B7: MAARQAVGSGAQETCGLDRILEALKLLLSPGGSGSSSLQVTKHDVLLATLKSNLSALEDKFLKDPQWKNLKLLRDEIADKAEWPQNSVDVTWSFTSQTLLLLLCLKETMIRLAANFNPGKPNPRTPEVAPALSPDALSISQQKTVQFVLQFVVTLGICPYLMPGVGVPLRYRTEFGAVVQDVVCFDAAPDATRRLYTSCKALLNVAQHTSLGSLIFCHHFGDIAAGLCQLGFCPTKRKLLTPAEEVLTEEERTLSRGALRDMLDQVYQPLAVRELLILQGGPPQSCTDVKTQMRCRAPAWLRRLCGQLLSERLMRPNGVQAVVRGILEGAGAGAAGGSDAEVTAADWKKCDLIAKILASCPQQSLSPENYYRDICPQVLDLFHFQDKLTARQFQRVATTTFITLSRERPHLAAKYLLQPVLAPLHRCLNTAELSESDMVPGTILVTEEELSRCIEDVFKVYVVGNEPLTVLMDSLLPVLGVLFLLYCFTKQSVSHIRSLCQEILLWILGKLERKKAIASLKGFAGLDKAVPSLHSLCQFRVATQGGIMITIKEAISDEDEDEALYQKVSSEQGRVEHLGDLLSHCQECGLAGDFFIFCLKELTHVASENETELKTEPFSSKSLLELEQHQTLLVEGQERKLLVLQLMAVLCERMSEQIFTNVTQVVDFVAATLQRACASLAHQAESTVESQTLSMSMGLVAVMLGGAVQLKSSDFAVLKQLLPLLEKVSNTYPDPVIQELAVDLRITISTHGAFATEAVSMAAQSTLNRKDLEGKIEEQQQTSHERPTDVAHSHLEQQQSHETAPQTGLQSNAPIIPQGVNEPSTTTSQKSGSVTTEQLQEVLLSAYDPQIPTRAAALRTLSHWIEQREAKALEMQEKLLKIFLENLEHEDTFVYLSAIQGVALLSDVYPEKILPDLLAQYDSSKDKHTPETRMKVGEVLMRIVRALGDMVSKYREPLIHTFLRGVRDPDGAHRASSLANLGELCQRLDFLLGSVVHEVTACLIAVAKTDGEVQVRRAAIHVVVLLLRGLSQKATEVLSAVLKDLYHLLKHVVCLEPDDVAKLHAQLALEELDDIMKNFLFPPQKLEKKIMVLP
UniProt Q99081: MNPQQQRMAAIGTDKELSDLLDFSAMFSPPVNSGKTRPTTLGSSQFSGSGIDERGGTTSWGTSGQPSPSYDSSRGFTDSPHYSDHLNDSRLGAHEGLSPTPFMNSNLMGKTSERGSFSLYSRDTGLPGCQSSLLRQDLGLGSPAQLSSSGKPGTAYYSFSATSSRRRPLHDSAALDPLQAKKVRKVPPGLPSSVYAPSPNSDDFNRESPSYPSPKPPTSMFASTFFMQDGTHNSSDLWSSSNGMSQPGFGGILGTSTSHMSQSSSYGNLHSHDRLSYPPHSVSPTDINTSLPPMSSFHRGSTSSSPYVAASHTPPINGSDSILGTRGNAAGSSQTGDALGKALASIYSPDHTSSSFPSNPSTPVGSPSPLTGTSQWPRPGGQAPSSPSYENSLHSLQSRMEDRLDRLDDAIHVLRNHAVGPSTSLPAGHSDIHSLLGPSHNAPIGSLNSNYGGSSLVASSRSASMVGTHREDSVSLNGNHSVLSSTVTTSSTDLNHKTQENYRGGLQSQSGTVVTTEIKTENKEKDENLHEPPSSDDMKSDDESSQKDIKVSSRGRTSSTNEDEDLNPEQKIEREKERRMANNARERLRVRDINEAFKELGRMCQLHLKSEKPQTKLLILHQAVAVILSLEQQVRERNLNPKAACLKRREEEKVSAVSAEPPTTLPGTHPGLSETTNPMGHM
UniProt O75347: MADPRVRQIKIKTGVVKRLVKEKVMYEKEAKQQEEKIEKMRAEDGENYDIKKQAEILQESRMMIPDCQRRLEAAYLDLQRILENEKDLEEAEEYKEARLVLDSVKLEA

Some of the results follow.

Compound in this experiment: NC1(c2ccc(-c3nc4ccn5c(=O)[nH]nc5c4cc3-c3ccccc3)cc2)CCC1
The experiment is described as follows: log2 fold change, soluble protein after heating vs DMSO (PISA); higher = thermal stabilisation; K562 lysate, 10 uM; active = over 0.2 and 3.5 SD of the protein, either way, in both replicates (recomputed). The gist of the method: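 To prepare the extract, K562 pellets were dounce-homogenised in PBS pH 7.4 with 1 mM MgCl2, giving crude material at 1 mg/mL protein. This was treated with 10 μM compound for 30 min, then heated in aliquots for 3 min over 48°C-58°C before pooling and addition of NP-40 to 0.5% at 4°C. Centrifugation at 21,000xg for 90 min left soluble protein in the supernatant, which TMTpro 16plex LC-MS/MS quantified with equalised channel sums. Results are log-two fold changes in thermal stability compared with solvent controls, from duplicates.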
With TCAF1 (UniProt Q9Y4C2), the log2 fold change is inactive: -0.043.

Consider TARS1 (UniProt P26639), for which the log2 fold change is inactive: 0.004.

Take TEX30 (UniProt Q5JUR7): the log2 fold change was inactive: -0.052.

For TATDN3 isoform 3 (UniProt Q17R31), the log2 fold change was inactive: -0.01.

As to TAGLN2 isoform 2 (UniProt P37802), the log2 fold change was inactive: -0.002.

As to TAF6L (UniProt Q9Y6J9), the log2 fold change is inactive: 0.034.

For TATDN1 (UniProt Q6P1N9), the log2 fold change was inactive: 0.002.

Take TAOK1 (UniProt Q7L7X3): the log2 fold change is inactive: 0.017.

TBCB (UniProt Q99426): the log2 fold change was inactive: 0.004.

As to TFCP2 (UniProt Q12800), the log2 fold change is inactive: -0.059.

In the case of TBL3 (UniProt Q12788), the log2 fold change is inactive: -0.052.

For the target TARBP2 (UniProt Q15633), the log2 fold change was inactive: 0.056.

On to TFIP11 (UniProt Q9UBB9), for which the log2 fold change was inactive: -0.004.

Take TBCE (UniProt Q15813): the log2 fold change was inactive: -0.041.

As to TBC1D14 (UniProt Q9P2M4), the log2 fold change is inactive: 0.114.

Consider TFG (UniProt Q92734), for which the log2 fold change is inactive: -0.017.

Consider TCERG1 (UniProt O14776), for which the log2 fold change is inactive: 0.06.

As for TDRD3 isoform 3 (UniProt Q9H7E2), the log2 fold change was inactive: 0.064.

For the target TFR2 (UniProt Q9UP52), the log2 fold change was inactive: -0.005.

Regarding TBC1D23 (UniProt Q9NUY8), the log2 fold change is inactive: -0.004.

Take TEX10 (UniProt Q9NXF1): the log2 fold change was inactive: -0.072.

In the case of TBC1D2 (UniProt Q9BYX2), the log2 fold change was inactive: 0.024.

On to TAF7 (UniProt Q15545), for which the log2 fold change is inactive: 0.006.

As for TBL1XR1 (UniProt Q9BZK7), the log2 fold change was inactive: 0.007.

Consider TANGO6 (UniProt Q9C0B7), for which the log2 fold change was inactive: -0.001.

Consider TDP1 (UniProt Q9NUW8), for which the log2 fold change is inactive: 0.04.

With TBC1D10B (UniProt Q4KMP7), the log2 fold change was inactive: 0.015.

Turning to TCF12 isoform 3 (UniProt Q99081), the log2 fold change was inactive: -0.043.

In the case of TCOF1 isoform 6 (UniProt Q13428), the log2 fold change is inactive: 0.1.

Regarding TBCA (UniProt O75347), the log2 fold change was inactive: 0.007.

TBC1D10A (UniProt Q9BXI6): the log2 fold change was inactive: -0.041.

For TAOK3 (UniProt Q9H2K8), the log2 fold change is inactive: -0.022.

TFB2M (UniProt Q9H5Q4): the log2 fold change was inactive: 0.002.

Take TDRD7 (UniProt Q8NHU6): the log2 fold change is inactive: 0.013.

On to TF (UniProt P02787), for which the log2 fold change is inactive: -0.007.

TERF2 (UniProt Q15554): the log2 fold change is inactive: -0.022.
